Further values from the same series stand in other lists.
Test system: tyrosine kinase activity in lysates prepared from cell lines
Assay: PAMCHIP96 tyrosine peptide array profiling of lysates of 27 cell lines in absence or presence of MTKI
Assay type: biochemical
Conditions: 5 μM
Excerpt: PAMGENE technology using the tyrosine peptide PAMCHIP96 allows the kinetic detection of the phosphorylation of 144 tyrosine peptides spotted onto a 3-dimensional porous well of a 96-well plate (www.pamgene.com). This technology can be used to measure the activity of purified kinases and the effects of kinase inhibitors thereon. Phosphotyrosine peptides are detected using a mix of fluorescently labeled anti-phosphotyrosine antibodies. Phosphorylation of peptides can be followed in real time due to the possibility of removing the reaction mix for a few seconds during the assay by a pumping mechanism to allow CCD camera detection of phosphopeptides bound to the fluorescent antibody. These consecutive datapoints (quantified spot images) generate a kinetic curve for each individual peptide, and allow for the calculation of initial velocities and endpoints associated with each individual peptide.
Cells cultured in appropriate medium in T175 flasks, treated with compound if necessary, are harvested at 70-90% confluency.
Media is removed, cells are washed with 10 ml ice cold PBS containing 0.1 mM NaVO4 and lysed in 1 ml of M-PER buffer (PIERCE) containing phosphatase and protease inhibitors (HALT, PIERCE). Cells are collected by scraping, and centrifuged for 10 minutes at 12 000×g. Supernatant lysates are filtered through a 0.2 micrometer filter (Anotop 0.2 μm anopore filter; Whatmann). Lysates are flash frozen in liquid nitrogen and stored at −80C.
Just prior to the PAMCHIP experiment, total protein content is quantitated in the lysates and lysates are diluted to 1 mg/ml in a total volume of 200 μl, with M-PER phosphatase and protease inhibitors (HALT, PIERCE). 10 μg of total lysate (corresponding to 10 μl) will be used per well on the PAMCHIP96.
To all 200 μl lysates 10 units of benzonase (Novagen) is added and lysates are further incubated for 30 min on ice and next centrifuged for 10 minutes at 12 000×g. The supernatant is then 1:1 diluted with compound or DMSO diluted to the appropriate concentration in water, and lysates are further incubated exactly 60 min on ice. Meanwhile, a PAMCHIP96 tyrosine peptide chip (PAMGENE) is blocked with 2% BSA (filtered through a 0.2 μm anopore filter; Whatmann) using the standard setting of a PAMSTATION96 (PAMGENE).
The composition of the kinase buffer is as follows: 1×ABL buffer (NEB), 0.5 mg/ml BSA (from 10 mg/ml NEB stock), 100 μM ATP (dissolved and diluted in 1×ABL buffer), 5 μg/ml PY20-FITC (ExAlpha Biologicals, azide-free preparation). A twofold concentrated kinase buffer is prepared chilled on ice, DMSO or compound is added as appropriate, and the solution is added 1:1 to the (compound treated) ice cold lysates, and immediately applied to a tyrosine peptide PAMCHIP96. The assay is run on a PAMSTATION96 according to standard procedures: after loading of the plate, solution is pumped once onto the wells, a first exposure is read (150 mSec) and then a kinetic reading program (reading every 5 min for 150 mSec) is run for 60 min. Lysates are run in 6 technical replicates for each condition; replicates are always applied horizontally next to each other to avoid vertical strip effects of the chip.
The data (spot images) are further quantified and linked to the peptide identities using EVOLVE PAMGRID software (PAMGENE). The quantified data are then fit to a curve using CurveFitHT software (PAMGENE) using the Vinip2 curve fitting algorithm, applied on the first 30 min of the assay; the initial velocity is derived at the first kinetic time point read. All subsequent data analyses were done on initial velocities (Vini) using the software packages Omniviz and R (Ihaka, R. and Gentlemen, R. (1996) R: a language for data analysis and graphics. J. Comput. Graph. Stat., 5, 299-314).
After replacing the Vini's lower than 0.1 by 0.1, all Vini's were log 2-transformed to approach normality.

COc1cc2ncnc3c2cc1OCCCCCN(C)Cc1ccc(Br)cc1N3 [MTKI, 4,6-ethanediylidenepyrimido[4,5-b][6,1,12]benzoxadiazacyclopentadecine, 17-bromo-8,9,10,11,12,13,14,19-octahydro-20-methoxy-13-methyl-]
ratio of initial velocity of peptide phosphorylation (SHSY5Y lysate, CDK7_157_169_S164): 0.97 | ratio of initial velocity of peptide phosphorylation (SHSY5Y lysate, CREB1_122_134_Y134/S133): 1.17 | ratio of initial velocity of peptide phosphorylation (SHSY5Y lysate, DDR2_733_745_Y740): 1.01 | ratio of initial velocity of peptide phosphorylation (SHSY5Y lysate, ENOG_37_49_Y43): 0.99 | ratio of initial velocity of peptide phosphorylation (SHSY5Y lysate, GSK3B_209_221_Y216): 0.87 | ratio of initial velocity of peptide phosphorylation (SHSY5Y lysate, MK10_216_228_T221/Y223): 1.10 | ratio of initial velocity of peptide phosphorylation (SHSY5Y lysate, NCF1_313_325_S315/S320): 1.26 | ratio of initial velocity of peptide phosphorylation (SHSY5Y lysate, NPT2_501_513_T508): 1.17 | ratio of initial velocity of peptide phosphorylation (SHSY5Y lysate, PECA1_706_718_Y713): 0.96 | ratio of initial velocity of peptide phosphorylation (SHSY5Y lysate, PLCG1_764_776_Y771): 0.96 | ratio of initial velocity of peptide phosphorylation (SHSY5Y lysate, PRRX2_202_214_Y214): 0.92 | ratio of initial velocity of peptide phosphorylation (SHSY5Y lysate, RASA1_453_465_Y460): 0.87 | ratio of initial velocity of peptide phosphorylation (SHSY5Y lysate, STAT2_683_695_Y690): 1.17 | ratio of initial velocity of peptide phosphorylation (SHSY5Y lysate, SYN1_2_14_S9): 1.11 | ratio of initial velocity of peptide phosphorylation (SHSY5Y lysate, TYRO3_679_691_Y686): 0.95 | ratio of initial velocity of peptide phosphorylation (SKBR3 lysate, ENOG_37_49_Y43): 0.77 | ratio of initial velocity of peptide phosphorylation (SKBR3 lysate, GSK3B_209_221_Y216): 0.89 | ratio of initial velocity of peptide phosphorylation (SNU5 lysate, CDK7_157_169_S164): 0.98 | ratio of initial velocity of peptide phosphorylation (SNU5 lysate, CREB1_122_134_Y134/S133): 1.01 | ratio of initial velocity of peptide phosphorylation (SNU5 lysate, DDR2_733_745_Y740): 0.95 | ratio of initial velocity of peptide phosphorylation (SNU5 lysate, ENOG_37_49_Y43): 0.81 | ratio of initial velocity of peptide phosphorylation (SNU5 lysate, GSK3B_209_221_Y216): 0.98 | ratio of initial velocity of peptide phosphorylation (SNU5 lysate, MK10_216_228_T221/Y223): 0.99 | ratio of initial velocity of peptide phosphorylation (SNU5 lysate, NCF1_313_325_S315/S320): 0.99 | ratio of initial velocity of peptide phosphorylation (SNU5 lysate, NPT2_501_513_T508): 0.98 | ratio of initial velocity of peptide phosphorylation (SNU5 lysate, PECA1_706_718_Y713): 0.81 | ratio of initial velocity of peptide phosphorylation (SNU5 lysate, PGFRB_768_780_Y771/Y775/Y778): 0.89 | ratio of initial velocity of peptide phosphorylation (SNU5 lysate, PLCG1_764_776_Y771): 0.84 | ratio of initial velocity of peptide phosphorylation (SNU5 lysate, PRRX2_202_214_Y214): 0.89 | ratio of initial velocity of peptide phosphorylation (SNU5 lysate, RASA1_453_465_Y460): 0.92 | ratio of initial velocity of peptide phosphorylation (SNU5 lysate, STAT2_683_695_Y690): 0.91 | ratio of initial velocity of peptide phosphorylation (SNU5 lysate, SYN1_2_14_S9): 1.01 | ratio of initial velocity of peptide phosphorylation (SNU5 lysate, TYRO3_679_691_Y686): 0.89 | ratio of initial velocity of peptide phosphorylation (SNU484 lysate, GSK3B_209_221_Y216): 0.78 | ratio of initial velocity of peptide phosphorylation (SUM149 lysate, CDK7_157_169_S164): 0.72 | ratio of initial velocity of peptide phosphorylation (SUM149 lysate, CREB1_122_134_Y134/S133): 0.88 | ratio of initial velocity of peptide phosphorylation (SUM149 lysate, DDR2_733_745_Y740): 0.83 | ratio of initial velocity of peptide phosphorylation (SUM149 lysate, ENOG_37_49_Y43): 0.91 | ratio of initial velocity of peptide phosphorylation (SUM149 lysate, GSK3B_209_221_Y216): 0.41 | ratio of initial velocity of peptide phosphorylation (SUM149 lysate, MK10_216_228_T221/Y223): 0.79 | ratio of initial velocity of peptide phosphorylation (SUM149 lysate, NCF1_313_325_S315/S320): 1.06 | ratio of initial velocity of peptide phosphorylation (SUM149 lysate, NPT2_501_513_T508): 0.78 | ratio of initial velocity of peptide phosphorylation (SUM149 lysate, PECA1_706_718_Y713): 0.87 | ratio of initial velocity of peptide phosphorylation (SUM149 lysate, PGFRB_768_780_Y771/Y775/Y778): 0.58 | ratio of initial velocity of peptide phosphorylation (SUM149 lysate, PLCG1_764_776_Y771): 0.95 | ratio of initial velocity of peptide phosphorylation (SUM149 lysate, PRRX2_202_214_Y214): 0.71 | ratio of initial velocity of peptide phosphorylation (SUM149 lysate, RASA1_453_465_Y460): 0.93 | ratio of initial velocity of peptide phosphorylation (SUM149 lysate, STAT2_683_695_Y690): 0.89 | ratio of initial velocity of peptide phosphorylation (SUM149 lysate, SYN1_2_14_S9): 1.02 | ratio of initial velocity of peptide phosphorylation (SUM149 lysate, TYRO3_679_691_Y686): 0.76 | ratio of initial velocity of peptide phosphorylation (SUM159 lysate, CDK7_157_169_S164): 0.83 | ratio of initial velocity of peptide phosphorylation (SUM159 lysate, CREB1_122_134_Y134/S133): 1.03 | ratio of initial velocity of peptide phosphorylation (SUM159 lysate, DDR2_733_745_Y740): 0.83 | ratio of initial velocity of peptide phosphorylation (SUM159 lysate, ENOG_37_49_Y43): 0.82 | ratio of initial velocity of peptide phosphorylation (SUM159 lysate, GSK3B_209_221_Y216): 1.13 | ratio of initial velocity of peptide phosphorylation (SUM159 lysate, MK10_216_228_T221/Y223): 0.89 | ratio of initial velocity of peptide phosphorylation (SUM159 lysate, NCF1_313_325_S315/S320): 0.99 | ratio of initial velocity of peptide phosphorylation (SUM159 lysate, NPT2_501_513_T508): 0.98 | ratio of initial velocity of peptide phosphorylation (SUM159 lysate, PECA1_706_718_Y713): 0.87 | ratio of initial velocity of peptide phosphorylation (SUM159 lysate, PLCG1_764_776_Y771): 0.79 | ratio of initial velocity of peptide phosphorylation (SUM159 lysate, PRRX2_202_214_Y214): 0.84 | ratio of initial velocity of peptide phosphorylation (SUM159 lysate, RASA1_453_465_Y460): 0.82 | ratio of initial velocity of peptide phosphorylation (SUM159 lysate, STAT2_683_695_Y690): 1.09 | ratio of initial velocity of peptide phosphorylation (SUM159 lysate, SYN1_2_14_S9): 1.03 | ratio of initial velocity of peptide phosphorylation (SUM159 lysate, TYRO3_679_691_Y686): 0.87 | ratio of initial velocity of peptide phosphorylation (U118MG lysate, CDK7_157_169_S164): 0.85 | ratio of initial velocity of peptide phosphorylation (U118MG lysate, CREB1_122_134_Y134/S133): 0.99 | ratio of initial velocity of peptide phosphorylation (U118MG lysate, DDR2_733_745_Y740): 1.00 | ratio of initial velocity of peptide phosphorylation (U118MG lysate, ENOG_37_49_Y43): 0.85 | ratio of initial velocity of peptide phosphorylation (U118MG lysate, GSK3B_209_221_Y216): 1.06 | ratio of initial velocity of peptide phosphorylation (U118MG lysate, MK10_216_228_T221/Y223): 0.97 | ratio of initial velocity of peptide phosphorylation (U118MG lysate, NCF1_313_325_S315/S320): 1.05 | ratio of initial velocity of peptide phosphorylation (U118MG lysate, NPT2_501_513_T508): 0.94 | ratio of initial velocity of peptide phosphorylation (U118MG lysate, PECA1_706_718_Y713): 0.92 | ratio of initial velocity of peptide phosphorylation (U118MG lysate, PLCG1_764_776_Y771): 0.91 | ratio of initial velocity of peptide phosphorylation (U118MG lysate, PRRX2_202_214_Y214): 1.03 | ratio of initial velocity of peptide phosphorylation (U118MG lysate, RASA1_453_465_Y460): 0.94 | ratio of initial velocity of peptide phosphorylation (U118MG lysate, STAT2_683_695_Y690): 0.97 | ratio of initial velocity of peptide phosphorylation (U118MG lysate, SYN1_2_14_S9): 1.02 | ratio of initial velocity of peptide phosphorylation (U118MG lysate, TYRO3_679_691_Y686): 0.91

Source: patent US20100234238A1, “METHOD FOR PROFILING KINASE INHIBITORS” (Janssen Pharmaceutica N V, priority 2006, published 2010)
